Experimental data: PubChem BioAssay AID652243 (Drosophila RNAi Screening Center, 2013)

Aim: 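Fly genes required for human androgen receptor driven transcription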 (primary screen)
System: Drosophila S2R+ cells
Reagents: long dsRNA against Drosophila genes
Duration: 72 h (48 h, then 24 h hormone)
Conditions: synthetic androgen R1881 at 10 nM for 24 h
Measurement: 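Firefly light from an androgen-responsive reporter and Renilla control light per well, raw and unnormalised, for each of two replicates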
Scale: firefly reporter light: higher = more light from androgen-responsive reporter; Renilla control light: higher = more constitutive control signal (cell number, transfection)
Active means: 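Hit when the log firefly-to-Renilla ratio dropped or increased by a fixed fold versus the mean of GFP or LacZ controls across duplicate plates; lowering cut given as 1.5 and as 3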
Meaning of the calls: active = hit: reporter lowered or raised; inactive = no hit
The deposit covers about 24,000 reagents; shown is a random part of those with a known target gene and a result. Over the whole deposit, 246 (1%) got an active call. 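Plates not normalised; calls are printed but the firefly/Renilla ratio behind them is not deposited; fold cut for lowering reported inconsistently.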 Raw values vary from plate to plate and are shown uncorrected. Not stated in the record: the amount of reagent.

CG17598 [DRSC20636] | firefly reporter light, replicate 1 = 64764; firefly reporter light, replicate 2 = 83832; Renilla control light, replicate 1 = 5.51e5; Renilla control light, replicate 2 = 4.99e5; Outcome = inactive
CG17598 [DRSC36828] | Outcome = inactive
CG17598 [DRSC36829] | Outcome = inactive
CG14818 [DRSC18548] | firefly reporter light, replicate 1 = 2.09e5; firefly reporter light, replicate 2 = 2.31e5; Renilla control light, replicate 1 = 2.31e6; Renilla control light, replicate 2 = 3.09e6; Outcome = inactive
CG14818 [DRSC29496] | firefly reporter light, replicate 1 = 7.57e5; firefly reporter light, replicate 2 = 6.37e5; Renilla control light, replicate 1 = 1.71e6; Renilla control light, replicate 2 = 1.71e6; Outcome = inactive
nab [DRSC08455] | firefly reporter light, replicate 1 = 1.80e5; firefly reporter light, replicate 2 = 1.90e5; Renilla control light, replicate 1 = 1.75e6; Renilla control light, replicate 2 = 1.97e6; Outcome = inactive
nab [DRSC08456] | firefly reporter light, replicate 1 = 60175; firefly reporter light, replicate 2 = 1.11e5; Renilla control light, replicate 1 = 1.84e6; Renilla control light, replicate 2 = 2.25e6; Outcome = inactive
Obp49a [DRSC22562] | firefly reporter light, replicate 1 = 6.08e5; firefly reporter light, replicate 2 = 6.40e5; Renilla control light, replicate 1 = 1.39e6; Renilla control light, replicate 2 = 1.09e6; Outcome = inactive
Obp49a [DRSC25703] | firefly reporter light, replicate 1 = 3.39e5; firefly reporter light, replicate 2 = 2.47e5; Renilla control light, replicate 1 = 4.95e5; Renilla control light, replicate 2 = 4.83e5; Outcome = inactive
CG7382 [DRSC03052] | firefly reporter light, replicate 1 = 8.02e5; firefly reporter light, replicate 2 = 9.40e5; Renilla control light, replicate 1 = 1.92e6; Renilla control light, replicate 2 = 2.06e6; Outcome = inactive
CG7382 [DRSC27512] | firefly reporter light, replicate 1 = 1.68e5; firefly reporter light, replicate 2 = 1.78e5; Renilla control light, replicate 1 = 5.15e5; Renilla control light, replicate 2 = 5.14e5; Outcome = inactive
CG5199 [DRSC11770] | firefly reporter light, replicate 1 = 2.86e5; firefly reporter light, replicate 2 = 1.97e5; Renilla control light, replicate 1 = 2.16e6; Renilla control light, replicate 2 = 2.21e6; Outcome = inactive
Sos [DRSC03439] | firefly reporter light, replicate 1 = 2.76e5; firefly reporter light, replicate 2 = 2.02e5; Renilla control light, replicate 1 = 1.16e6; Renilla control light, replicate 2 = 1.28e6; Outcome = inactive
Sos [DRSC23624] | firefly reporter light, replicate 1 = 2.07e5; firefly reporter light, replicate 2 = 1.81e5; Renilla control light, replicate 1 = 4.77e5; Renilla control light, replicate 2 = 3.04e5; Outcome = inactive
Sos [DRSC39141] | firefly reporter light, replicate 1 = 5.84e5; firefly reporter light, replicate 2 = 5.81e5; Renilla control light, replicate 1 = 1.40e6; Renilla control light, replicate 2 = 1.28e6; Outcome = inactive
